# Measurements as given in doi:10.1101/2023.08.04.552021.
# Chains of the proteins cited; added tags and fusions are not shown. Residues count along the entry.
# UniProt P29590: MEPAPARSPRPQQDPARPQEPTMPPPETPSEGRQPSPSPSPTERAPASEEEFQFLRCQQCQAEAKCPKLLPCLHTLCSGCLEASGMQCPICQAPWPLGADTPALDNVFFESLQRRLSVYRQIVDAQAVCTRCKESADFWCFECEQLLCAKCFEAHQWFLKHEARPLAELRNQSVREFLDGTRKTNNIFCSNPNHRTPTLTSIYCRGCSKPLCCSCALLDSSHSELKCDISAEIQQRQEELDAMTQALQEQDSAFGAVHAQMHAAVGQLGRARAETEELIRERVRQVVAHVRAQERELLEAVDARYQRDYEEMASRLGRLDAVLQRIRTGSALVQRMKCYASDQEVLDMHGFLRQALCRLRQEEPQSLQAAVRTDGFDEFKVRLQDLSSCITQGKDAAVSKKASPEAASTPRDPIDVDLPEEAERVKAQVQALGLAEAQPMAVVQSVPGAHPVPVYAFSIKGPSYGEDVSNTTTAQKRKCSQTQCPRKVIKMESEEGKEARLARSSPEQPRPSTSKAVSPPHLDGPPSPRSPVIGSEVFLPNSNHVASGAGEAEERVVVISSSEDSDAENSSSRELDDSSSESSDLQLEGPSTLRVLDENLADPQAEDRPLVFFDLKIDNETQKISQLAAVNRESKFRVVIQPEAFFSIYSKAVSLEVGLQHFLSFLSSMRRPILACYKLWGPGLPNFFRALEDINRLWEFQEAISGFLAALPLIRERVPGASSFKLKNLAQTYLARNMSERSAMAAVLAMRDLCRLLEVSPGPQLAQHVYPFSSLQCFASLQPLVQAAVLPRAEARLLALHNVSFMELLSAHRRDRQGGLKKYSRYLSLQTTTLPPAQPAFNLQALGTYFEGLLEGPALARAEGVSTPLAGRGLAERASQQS
# UniProt P19811, residues 1-260: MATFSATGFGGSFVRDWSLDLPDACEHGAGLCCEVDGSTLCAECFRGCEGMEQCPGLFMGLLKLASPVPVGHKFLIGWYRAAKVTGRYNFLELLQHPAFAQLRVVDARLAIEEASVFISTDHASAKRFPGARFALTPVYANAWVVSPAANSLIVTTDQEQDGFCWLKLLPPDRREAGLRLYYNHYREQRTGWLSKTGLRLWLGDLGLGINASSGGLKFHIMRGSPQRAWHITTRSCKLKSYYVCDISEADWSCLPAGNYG
# Results are given in words; binding and its absence hold for the method and conditions named. In cells and extracts the contact can be indirect. Some binding calls cover weakened binding; strength is not graded here.
# Legend:
# [1] = biological target: GST-nsp1β fusion protein (PRRSV nsp1β) (PRRSV) (UniProt Q9WJB2); experiment: pull-down
# [2] = biological target: promyelocytic leukemia (PML) protein, endogenous (human (endogenous in HeLa)) (UniProt P29590); experiment: co-IP
Molecule,binding [1],binding [2]
"promyelocytic leukemia (PML) protein, endogenous (from UniProt P29590 1-882)",binds,
FLAG-nsp1 of equine arteritis virus (EAV) (from UniProt P19811 1-260),,binds
"F-nsp1α of PRRSV (protein, UniProt Q9WJB2 1-180) MSGILDRCTCTPNARVFMAEGQVYCTRCLSARSLLPLNLQVSELGVLGLFYRPEEPLRWTLPRAFPTVECSPAGACWLSAIFPIARMTSGNLNFQQRMVRVAAELYRAGQLTPAVLKALQVYERGCRWYPIVGPVPGVAVFANSLHVSDKPFPGATHVLTNLPLPQRPKPEDFCPFECAM",,no binding
